# In PubChem BioAssay AID1508600 (Functional Genomics Laboratory (NCATS/FGL), 2020):
# The campaign covered roughly 53,000 sequences. About 3,700 (7%) were called active.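 The calls were made as follows: active = gene knockdowns whose robust z-score for IL-1 alpha signal is at least 2 or at most -2, so actives lie on both sides; inactive = the rest.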 Some of the results follow.
# Test: Components of the Cytosolic LPS Sensing Pathway: Gene Identification via Genome-wide siRNA Screen;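 also: robust z of the log signal after scaling to non-targeting control siRNA wells of the plate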
# Details: RAW264.7 macrophages, IL-1a HTRF, actives lie on both sides, screened at 100 nM (by protocol), cells primed 5 h with Pam3CSK4 first
# In short: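 Knockdown: 100 nM siRNA, 48h, RAW264.7. Stimulation: Pam3CSK4 5 h, then LipidA via TransIT-TKO 24 h. Output: supernatant IL-1a HTRF, negative-control-normalized, log robust z-score; viability by CellTiter-Glo.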
row,Sequence,z-score
1,CGAACACUCGUUAAAGAAATT against Krt23,inactive: 0.247
2,GGAUCAAGAAACCAGACUATT against Mrpl23,inactive: 0.131
3,CCUGUCGACCUUAUUGUAATT against Vmn1r215,inactive: -1.96
4,GCUCUCUUGUGCUCCAACATT against Olfr531,inactive: -0.143
5,CCUGCUUGCCAACACCAUATT against Slc39a13,active: -2.2
6,GGCUGCUAAUUGGAUUUUUTT against Ccnj,inactive: -0.936
7,GCAGUCAAUGAACAUGUUGTT against Emc7,inactive: -1.4
8,GGGCUACAUGCCAUAUUUATT against Swap70,inactive: 1.09
9,GGUUCACAUCCUCCUCAGATT against Twist2,inactive: 1.08
10,CCUCUUUUUCUGUUACCGCTT against Tbc1d25,inactive: -0.295
11,GCCAAUGAUGUAGCAAAUUTT against Slc20a1,inactive: 1.71
12,GGUCAUGGCUACUUCAUCCTT against Dok7,inactive: 0.583
13,GGUCAUUAUUGUCAUCUACTT against Tmem9,inactive: -0.323
14,GCUGUGAUCUGAGGAGACUTT against Igf1,inactive: 0.312
15,GGAGCUGUUCUCUGAAAUGTT against Ift27,inactive: 1.07
16,GGUUCCACUCAUUGUCUCGTT against Fndc5,inactive: -0.573
17,GGCCUAGAUCAAUACCAAGTT against 4930433I11Rik,inactive: -0.809
18,GAUAUGGAGGGCUAUGAUUTT against D2hgdh,inactive: -0.294
19,GGUUUUGUAAUGUACAAACTT against Tada3,inactive: -0.575
20,GGAACACUAAAACUCAACUTT against Gpr146,inactive: -0.948
21,UUUAUACCAAUGCUGUACGTT against Gm5334,inactive: 0.121
22,CGUUUUCUCCUUCGAUCUUTT against Sema6c,inactive: 0.643

row,Sequence,z-score
1,CCUAAUUAAGGUUUCUGUUTT against C8a,inactive: 0.0122
2,GCCAGAAUGGACUUGAGAATT against Vmn1r227,inactive: -1.21
3,CCCGGGUGUUUUUGCCUAUTT against Kcnc4,inactive: 0.444
4,GGUUAUUACGUAGUUGGUATT against Cd46,inactive: 0.683
5,GGCGAUACCUAAAACAUCUTT against Noxa1,inactive: 1.09
6,GGUCAUUGGCACCAACAAGTT against Tgfbi,inactive: -0.722
7,CCCAAAGGUCUAAUGUAAATT against Prok2,inactive: -0.501
8,GGAGGAAUUCAUUAGAAACTT against Psmc1,active: -2.04
9,GGUGGACCUAGGUAACAUGTT against Cyp2d9,inactive: -0.0997
10,GGGAUUUCUGGUUUACUUCTT against Nudcd3,inactive: 1.93
11,GCAUGAUCCUUCAUAACAUTT against Armc12,inactive: -0.0732
12,CCAAGAAUCAAGCUGUGAATT against Arpc5l,inactive: -0.334
13,GGAAAAUCACUGAAAAGUATT against St6galnac1,inactive: -0.196
14,GGAACUGCUGUGCAGUUUUTT against Tmem179b,inactive: 1.4
15,GGUCAUUCAUAAAGAUUGATT against Kcnma1,inactive: -1.9
16,GGAAUUAAGGUAGAGGUUATT against Ms4a6d,inactive: -0.174
17,CCCUGGCUGAGUGCUUUGUTT against Olfr199,inactive: 0.887
18,GGAGGAAAACAAACCACAGTT against Tpbpa,inactive: 0.0817
19,GGUGCAAUUAUUUGAUCAUTT against Ptprb,inactive: -0.314
20,GCAUGAUGGUGCGCUUAAGTT against Ngdn,inactive: -0.187
21,CGAGGAUGCCCUAAGGGUUTT against Lrrtm3,inactive: -0.106
22,CCAACAUCGAGCUAGCCACTT against Psma5,active: -2.28

# As entered above.
# Entry of CCCGGGUGUUUUUGCCUAUTT against Kcnc4 under z-score: inactive: 0.444
# Entry of GCAUGAUCCUUCAUAACAUTT against Armc12 under z-score: inactive: -0.0732

# Later entries:

row,Sequence,z-score
1,GGUAUUUAUUGACAGGUGATT against Sh2d1b1,inactive: -0.836
2,GCUGUUCUAAUUCAUAAACTT against Ptrh2,inactive: 0.359
3,GGUUGGUUCAGAUAAGUCCTT against Egflam,inactive: 0.854
4,GGCUCUACAUUCCAGAGGUTT against Slc35c2,inactive: 0.202
5,GCCCGUGUGCCCAAGAAAATT against Pde6d,inactive: -1.3
6,GCUACUGCAGUAUACAUUGTT against Olfr869,active: 2.21
7,GGUUCAUCAAACUUGCUUGTT against Olfr1312,inactive: 0.569
8,GGGAAAGAGAAAUUUAAAGTT against Kcne4,inactive: 1.3
9,GGAAGACGGCAACUAUCCATT against Cyp2c50,inactive: 1.23
10,GCUUAUAAUGCCAUUACUUTT against Rad21,inactive: -0.548
11,GGCCAGAUUACCAGCAAUATT against 1810009J06Rik,inactive: 0.34
12,GGUGUUUGGGAACAAGAUGTT against Eif2ak3,inactive: -0.65
13,GGAAACACGUCUCCUCCAUTT against Krt87,inactive: 1.26
14,GGUAUGAUGAAAAUACACATT against Mmp1a,active: 2.56
15,GGGCAUGUGAUAGAACAAUTT against Stoml1,inactive: -0.701
16,GCCUAUGAUAAGUCUGUGUTT against Ifitm10,active: -2.25
17,GGUUGGAAAUGAAAUCAAUTT against Erc2,active: 2.36
18,GCCAAAGCCUAGAGCCAAUTT against Olfr410,inactive: 0.597
19,GGUUUAUCACAACUACCGCTT against Tmem179,inactive: 0.528
20,GGUGUACGUGAACAACUCCTT against Kcnmb4,inactive: -1.58
21,GCUUUUACUGUACCUCUUCTT against Tmc4,inactive: -1.05
22,GGAGAACCUGUGUAAGAUUTT against Rffl,inactive: 1.94

row,Sequence,z-score
1,GGCUCAGCAGCAGAAACAATT against Txndc9,inactive: -0.809
2,GGCCAGAGAGGAGAACUAATT against Zfp202,inactive: 1.77
3,GGGUUCCUCAGAGACUGAGTT against Esrra,inactive: 1.57
4,GGCGACACAAUAAGACAGATT against Wdr19,inactive: 0.648
5,GGUGUUGUUCACGAGGACCTT against Nop56,inactive: -0.259
6,CCUGUAGAUUCAAUUAGAGTT against Vkorc1l1,inactive: -0.206
7,GGGUAUUGAAUCAGGCAUCTT against Olfr628,inactive: 0.852
8,GGAGAACAUUGCUAAAUGUTT against Slc34a2,inactive: -0.371
9,GGUCCCUAGCACUAUUUUUTT against Hes6,inactive: 1.04
10,GGGCUUUCUCAGAAAAGAATT against Olfr508,inactive: -1.29
11,GCCUGAAUUUUUGAGAACUTT against Ccdc88a,inactive: -0.841
12,GGUUCAGCUUAUGGUAACUTT against Vps13a,inactive: -1.38
13,GGGUCUGUAUCAGCUUGGUTT against Olfr1402,inactive: 1.26
14,GGUAAAGCAGUACCUUUCUTT against Mitf,active: 2.53
15,GGAGGCAGCAGUUAUUGUGTT against Ly6a,inactive: -0.486
16,GGUUGUUAUAGAAGCUAAUTT against Wnt5a,inactive: 0.128
17,GCUAACCUUUGAGUUAGUGTT against Tbc1d12,inactive: 0.833
18,GCCAUUUCAUUUCGGACUGTT against Dgkz,inactive: 0.422
19,GGAUAUCCUACAGUUCUGGTT against Krt5,inactive: -0.342
20,GGUGUGCAGAAGAUCUUGCTT against Osbpl6,inactive: 0.883
21,GAAGAUUGGAUUUAAAGCCTT against Olfr667,inactive: -0.891
22,GGAUCAACGAGGAUCAAGATT against Engase,inactive: 0.927

row,Sequence,z-score
1,CGCAUCCGCUAGUAGCUUGTT against Fscn1,inactive: 1.26
2,CCUCAUCAAUCAGCCUAUGTT against Olfr1178,inactive: -1.83
3,GGCUUUUUGUUAAGGCAGCTT against Ap1ar,inactive: 1.59
4,CCGGAGUAACUCUCUAACATT against Apbb3,inactive: -0.291
5,GGCUGACUGGACAAUAAAGTT against Krt85,inactive: -1.28
6,GGCUUCACCAUUUUCAUAATT against P2rx5,inactive: 0.0911
7,GCGAAGACUUCUUCUACAUTT against Lzts1,inactive: -0.93
8,GGGAAACUUUGCCACCUUATT against Tspan4,inactive: 1.24
9,CCCUUGCCUCAAAGAUCUUTT against Tex48,inactive: 0.633
10,GCCUUUUUCAGACACUAAUTT against Ugt2b1,inactive: -0.427
11,GGACGAGAAGAUUGUCUGCTT against Rassf9,inactive: 1.27
12,GGACGAUGAACAUUGUCCCTT against Gpr19,inactive: 0.402
13,GGGAUGUGCUUUCAGGCUGTT against AU040320,inactive: 0.384
14,GCAUGCCUCCAAUAUGCUUTT against Vps35,inactive: -0.302
15,GCCUUAACUAGUUUGUGUCTT against Shh,inactive: 0.315
16,CGAAACGGAAGGUGGAGGUTT against Kat5,inactive: -1.41
17,GGAAAGAGAAAACUUUAGCTT against Nme7,inactive: -0.131
18,GGAGAUGAUCUUCUGAAAUTT against Klra17,inactive: 0.00645
19,UCCUGUCUGGUUCCUUUUUTT against Mettl7a1,inactive: 0.097

# A portion from the list above, as a working copy:
row,Sequence,z-score
2,GGAUCAAGAAACCAGACUATT against Mrpl23,inactive: 0.131
3,CCUGUCGACCUUAUUGUAATT against Vmn1r215,inactive: -1.96
4,GCUCUCUUGUGCUCCAACATT against Olfr531,inactive: -0.143
5,CCUGCUUGCCAACACCAUATT against Slc39a13,active: -2.2
6,GGCUGCUAAUUGGAUUUUUTT against Ccnj,inactive: -0.936
7,GCAGUCAAUGAACAUGUUGTT against Emc7,inactive: -1.4
